PubChem BioAssay AID504804 – Drosophila RNAi Screening Center | 2011
The deposit covers about 19,000 reagents; this is a random part of those that have a named target and a result. Of all reagents, 47 (0.25%) were called active. 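Signals are raw, not normalised; exact z-scores behind calls not deposited; actives needed confirmation, so some wells reaching 2 SD are inactive.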 Reagents against one gene are numbered here. Names joined by + are all predicted targets of the reagent.

Screen: 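Fly genes whose loss lessens doxorubicin-driven cell death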 (primary screen)
Cells: Drosophila Kc cells
Reagent: long dsRNA against Drosophila genes, 0.5 µg dsRNA per well
Duration: 96 h (48 h knock-down, then 48 h drug)
Challenge: doxorubicin 5 µg/ml for 48 h, added 48 h after dsRNA
Detection: 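Viability measured as cellular ATP by luminescence after 48 h knock-down then 48 h doxorubicin at 5 µg/ml; unnormalised plate counts for each replicate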
Direction: raw ATP luminescence: higher = more viable cells, protection from doxorubicin
Active means: 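Active when both duplicate wells lie at least 2 SD above the plate mean and protection is confirmed by rescreening and independent dsRNAs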

crp (GeneID 34956)
- raw ATP luminescence, replicate 1: 51120
- raw ATP luminescence, replicate 2: 54557
- Outcome: inactive

prd1 (GeneID 41425)
- raw ATP luminescence, replicate 1: 60200
- raw ATP luminescence, replicate 2: 44230
- Outcome: inactive

CG14691 (GeneID 41287)
- raw ATP luminescence, replicate 1: 60783
- raw ATP luminescence, replicate 2: 77137
- Outcome: inactive

Acsx2 (GeneID 42353)
- raw ATP luminescence, replicate 1: 69220
- raw ATP luminescence, replicate 2: 61200
- Outcome: inactive

Sod1 (GeneID 39251)
- raw ATP luminescence, replicate 1: 80677
- raw ATP luminescence, replicate 2: 75993
- Outcome: inactive

pelo (GeneID 34286)
- raw ATP luminescence, replicate 1: 1.13e5
- raw ATP luminescence, replicate 2: 76923
- Outcome: inactive

Ugt36A1 + CG15418
- raw ATP luminescence, replicate 1: 21040
- raw ATP luminescence, replicate 2: 34973
- Outcome: inactive

CG31534 (retired record) (GeneID 40585) #1
- raw ATP luminescence, replicate 1: 20587
- raw ATP luminescence, replicate 2: 24470
- Outcome: inactive

CG31534 (retired record) (GeneID 40585) #2
- raw ATP luminescence, replicate 1: 76987
- raw ATP luminescence, replicate 2: 71760
- Outcome: inactive

Nmdar2 (GeneID 31107) #1
- raw ATP luminescence, replicate 1: 58950
- raw ATP luminescence, replicate 2: 48790
- Outcome: inactive

Nmdar2 (GeneID 31107) #2
- raw ATP luminescence, replicate 1: 55400
- raw ATP luminescence, replicate 2: 54550
- Outcome: inactive

Nmdar2 (GeneID 31107) #3
- raw ATP luminescence, replicate 1: 47190
- raw ATP luminescence, replicate 2: 48510
- Outcome: inactive

tea (GeneID 36027) #1
- raw ATP luminescence, replicate 1: 81030
- raw ATP luminescence, replicate 2: 59657
- Outcome: inactive

tea (GeneID 36027) #2
- raw ATP luminescence, replicate 1: 45803
- raw ATP luminescence, replicate 2: 81580
- Outcome: inactive

CG13040 (GeneID 39804)
- raw ATP luminescence, replicate 1: 36633
- raw ATP luminescence, replicate 2: 25120
- Outcome: inactive

rdhB (GeneID 42614)
- raw ATP luminescence, replicate 1: 43643
- raw ATP luminescence, replicate 2: 47347
- Outcome: inactive

Gr98d (GeneID 43309)
- raw ATP luminescence, replicate 1: 42210
- raw ATP luminescence, replicate 2: 51610
- Outcome: inactive

CG13144 (GeneID 34444)
- raw ATP luminescence, replicate 1: 43577
- raw ATP luminescence, replicate 2: 69520
- Outcome: inactive

Nrt (GeneID 39873)
- raw ATP luminescence, replicate 1: 28900
- raw ATP luminescence, replicate 2: 22897
- Outcome: inactive

CG42340 (GeneID 7354472) #1
- raw ATP luminescence, replicate 1: 1.70e5
- raw ATP luminescence, replicate 2: 2.28e5
- Outcome: inactive

CG42340 (GeneID 7354472) #2
- raw ATP luminescence, replicate 1: 29010
- raw ATP luminescence, replicate 2: 40110
- Outcome: inactive

CG42340 (GeneID 7354472) #3
- raw ATP luminescence, replicate 1: 32000
- raw ATP luminescence, replicate 2: 35490
- Outcome: inactive

Vajk1 (GeneID 34809)
- SD above plate mean: 2 to 3 SD above plate mean
- raw ATP luminescence, replicate 1: 96113
- raw ATP luminescence, replicate 2: 1.23e5
- Outcome: inactive

CG16976 (retired record) (GeneID 38336)
- raw ATP luminescence, replicate 1: 51097
- raw ATP luminescence, replicate 2: 54960
- Outcome: inactive

CG42813 + CG42814
- raw ATP luminescence, replicate 1: 53200
- raw ATP luminescence, replicate 2: 32510
- Outcome: inactive

l(1)G0469 (GeneID 32371)
- raw ATP luminescence, replicate 1: 4.13e5
- raw ATP luminescence, replicate 2: 3.35e5
- Outcome: inactive

Prosalpha3T (GeneID 43679)
- raw ATP luminescence, replicate 1: 53530
- raw ATP luminescence, replicate 2: 53030
- Outcome: inactive

BuGZ (GeneID 35004) #1
- raw ATP luminescence, replicate 1: 68650
- raw ATP luminescence, replicate 2: 51320
- Outcome: inactive

BuGZ (GeneID 35004) #2
- raw ATP luminescence, replicate 1: 41460
- raw ATP luminescence, replicate 2: 60680
- Outcome: inactive

3 successive reagents from above, quoted:
Gr98d (GeneID 43309)
- raw ATP luminescence, replicate 1: 42210
- raw ATP luminescence, replicate 2: 51610
- Outcome: inactive

CG13144 (GeneID 34444)
- raw ATP luminescence, replicate 1: 43577
- raw ATP luminescence, replicate 2: 69520
- Outcome: inactive

Nrt (GeneID 39873)
- raw ATP luminescence, replicate 1: 28900
- raw ATP luminescence, replicate 2: 22897
- Outcome: inactive
